This test concerns the target CD137 protein (UniProt Q07011). The test is described as follows: BLI (Octet Red 96).

By UniProt entry, the sequences of proteins in these tests, tags left out. Residues count along the entry.
UniProt Q07011, residues 24-186: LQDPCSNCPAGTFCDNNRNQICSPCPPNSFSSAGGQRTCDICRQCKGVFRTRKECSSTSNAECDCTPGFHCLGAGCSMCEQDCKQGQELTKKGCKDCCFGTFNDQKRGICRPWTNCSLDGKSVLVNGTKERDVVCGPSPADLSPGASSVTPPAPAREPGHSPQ

These are yes or no findings as the source states them, for the method shown. Some binding calls cover weakened binding; strength is not graded here.

B1: humanized anti-CD137 antibody clone 3715 (IgG4 S228P/kappa) (antibody, V domains shown)
VH: QVQLVQSGAEVVKPGASVKVSCKASGYTFAGFEMHWVRQAPGQGLGWMGAIDPKTGGTDYNQKFKDRVTMTADTSISTAYMELSRLRSDDTAVYYCTRDLGYFDVWGQGTLVTVSS
VL: DIQMTQSPSSLSASVGDRVTITCRASQDIRSNLNWYQQKPGGAVKLLIYYTSRLHSGVPSRFSGSGSGTDYTLTISSLQPEDFATYFCQQSEKLPRTFGGGTKVEIRR
Consider B1, for which the binding entry is “binds”.

B2: humanized anti-CD137 antibody clone 3717 (IgG4 S228P/kappa) (antibody, V domains shown)
VH: QVQLVQSGAEVVKPGASVKLSCKASGYTFAGFEMHWIRQAPGQGLGWIGAIDPKTGGTDYNQKFKDRATLTADTSISTAYMELSRLRSDDTAVYYCTRDLGYFDVWGQGTLVTVSS
VL: DIQMTQSPSSLSASVGDRVTITCRASQDIRSNLNWYQQKPGKAPKLLIYYTSRLHSGVPSRFSGSGSGTDFTLTISSLQPEDFATYYCQQSEKLPRTFGGGTKVEIRR
For B2, the binding entry is “binds”.

B3: humanized anti-CD137 antibody clone 3719 (IgG4 S228P/kappa) (antibody, V domains shown)
VH: QVQLVQSGAEVVKPGASVKLSCKASGYTFAGFEMHWIRQAPGQGLGWIGAIDPKTGGTDYNQKFKDRATLTADTSISTAYMELSRLRSDDTAVYYCTRDLGYFDVWGQGTLVTVSS
VL: DIQMTQSPSSLSASVGDRVTITCRASQDIRSNLNWYQQKPGGAVKLLIYYTSRLHSGVPSRFSGSGSGTDYTLTISSLQPEDFATYFCQQSEKLPRTFGGGTKLEIRR
On to B3, for which the binding entry is on record as “binds”.

B4: humanized anti-CD137 antibody clone 3716 (IgG4 S228P/kappa) (antibody, V domains shown)
VH: QVQLVQSGAEVVKPGASVKVSCKASGYTFAGFEMHWVRQAPGQGLGWMGAIDPKTGGTDYNQKFKDRVTMTADTSISTAYMELSRLRSDDTAVYYCTRDLGYFDVWGQGTLVTVSS
VL: DIQMTQSPSSLSASVGDRVTITCRASQDIRSNLNWYQQKPGGAVKLLIYYTSRLHSGVPSRFSGSGSGTDYTLTISSLQPEDFATYFCQQSEKLPRTFGGGTKLEIRR
As to B4, the binding result is listed as “binds”.

B5: humanized anti-CD137 antibody clone 3718 (IgG4 S228P/kappa) (antibody, V domains shown)
VH: QVQLVQSGAEVVKPGASVKLSCKASGYTFAGFEMHWIRQAPGQGLGWIGAIDPKTGGTDYNQKFKDRATLTADTSISTAYMELSRLRSDDTAVYYCTRDLGYFDVWGQGTLVTVSS
VL: DIQMTQSPSSLSASVGDRVTITCRASQDIRSNLNWYQQKPGGAVKLLIYYTSRLHSGVPSRFSGSGSGTDYTLTISSLQPEDFATYFCQQSEKLPRTFGGGTKVEIRR
Regarding B5, the binding result is “binds”.

These data come from patent publication US20210246218A1.
